Test results as given in US20200157197A1 (VENOMYX, published 2020).
No constants are given. Whether binding was seen depends on the method and setting. Binding calls can cover weak binding; strength is not graded here.

Target: PLA2 (purified snake venom phospholipase A2) (Crotalus adamanteus or Calloselasma rhodostoma (both named, not resolved))
Test: panning, phage ELISA and purified-VHH ELISA on coated toxin

B1: Anti-PLA2 VHH (H3) (VHH)
VHH: QVQLQQSGGGLVQAGDSLRLSCAASGRTFRDRAMNWFRQAPGKEREFVAAIHWSDGRTYYADSVKGRFTISRDNAKNTGSLQMDSLKTEDTGVYYCAIVMAYPWTTPGGINDWGKGTLVTVSS
binding: binds
